Laboratory results reported in paper PMC8330795 (Drug Delivery, 2021).

Experiment: peptide made by a vendor (Fmoc solid-phase peptide synthesis)
Settings: whole synthesis, reversed-phase analytical HPLC

FITC-(Acp)-KKKKKRFSFKKSFKLSGFSFKKNKK
purity (crude or final not stated): >96%
